In US20240327382A1 (ALMAC DISCOVERY LIMITED, priority 2021, published 2024):

Tests used:
[1] = Predicted hepatic clearance using mouse liver microsome data; assay type: in vitro ADME
[2] = Kinetic solubility (KSol); assay type: physicochemical

SMILES: O=C(N1CC/C(=C/n2cnc(-c3ccccc3)cc2=O)C2(CCCC2)C1)N1CCNC[C@H]1c1ccccc1
- HLM CLhep [1]: 3 mL/min/kg
- KSol [2]: 3 µM

Structures were worked out from names or drawings and are uncertain.
